Results are given in words; binding and its absence hold for the method and conditions named. Some entries that bind do so weakly or less than the wild type. Where a sequence is shown, tags or fusion partners need not be part of it.
Experiments:
Experiment in all cases: FZD-dependent membrane translocation (plasma membrane recruitment) assay, confocal microscopy; GFP-tagged DVL2, DEP or PDZ co-expressed with SNAP-FZD5 (WT or mutant) in transfected cells (HeLa in the legends, HEK293T in the text), fixed and stained with α-SNAP; with or without Wnt3a-conditioned medium for 30 min
[1] = biological target: SNAP-FZD5 (Frizzled 5), wild type (human) (UniProt Q13467)
SNAP-FZD5 L446A (human) = SNAP-FZD5 L446A (human) (UniProt Q13467)
SNAP-FZD5 L443A (human) = SNAP-FZD5 L443A (human) (UniProt Q13467)

Protein sequences, listed by entry. Tags and fused reporters are not part of them. Lines headed by an entry give the natural chain unless they say otherwise; changes in a name come on top. Chains listed by the source or under a name are the forms on record and can include a tag or linker. Residues count along the entry.
SNAP-FZD5 (Frizzled 5), wild type (Q13467, residues 27-585): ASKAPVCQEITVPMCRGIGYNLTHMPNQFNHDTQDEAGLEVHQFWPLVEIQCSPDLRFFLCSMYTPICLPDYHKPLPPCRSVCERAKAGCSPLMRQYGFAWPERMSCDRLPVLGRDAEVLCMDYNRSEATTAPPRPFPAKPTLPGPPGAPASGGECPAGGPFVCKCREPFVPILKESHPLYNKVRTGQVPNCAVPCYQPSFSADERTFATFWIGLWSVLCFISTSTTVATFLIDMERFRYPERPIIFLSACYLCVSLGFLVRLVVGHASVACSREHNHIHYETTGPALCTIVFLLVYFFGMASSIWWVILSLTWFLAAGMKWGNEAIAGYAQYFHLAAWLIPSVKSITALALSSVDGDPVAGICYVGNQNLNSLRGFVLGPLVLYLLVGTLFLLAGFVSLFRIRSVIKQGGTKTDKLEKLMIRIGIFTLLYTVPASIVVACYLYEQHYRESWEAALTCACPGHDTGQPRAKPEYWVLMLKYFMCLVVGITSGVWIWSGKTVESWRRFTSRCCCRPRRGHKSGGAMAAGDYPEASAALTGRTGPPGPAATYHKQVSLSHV
SNAP-FZD5 L446A (Q13467, form named): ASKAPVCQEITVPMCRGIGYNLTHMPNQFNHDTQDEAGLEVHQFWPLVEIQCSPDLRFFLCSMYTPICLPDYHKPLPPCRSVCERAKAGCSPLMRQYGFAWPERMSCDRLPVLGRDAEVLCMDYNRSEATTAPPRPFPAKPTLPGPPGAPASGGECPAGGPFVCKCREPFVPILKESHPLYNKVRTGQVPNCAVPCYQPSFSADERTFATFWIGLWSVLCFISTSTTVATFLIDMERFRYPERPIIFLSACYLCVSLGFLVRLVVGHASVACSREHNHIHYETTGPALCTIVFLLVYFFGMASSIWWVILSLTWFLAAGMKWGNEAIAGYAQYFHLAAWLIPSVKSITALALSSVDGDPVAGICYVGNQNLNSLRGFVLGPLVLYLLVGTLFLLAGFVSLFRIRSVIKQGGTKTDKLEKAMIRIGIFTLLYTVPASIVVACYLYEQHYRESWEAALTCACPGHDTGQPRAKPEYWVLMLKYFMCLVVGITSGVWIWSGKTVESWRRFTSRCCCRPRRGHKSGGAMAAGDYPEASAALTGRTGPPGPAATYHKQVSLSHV
SNAP-FZD5 L443A (Q13467, form named): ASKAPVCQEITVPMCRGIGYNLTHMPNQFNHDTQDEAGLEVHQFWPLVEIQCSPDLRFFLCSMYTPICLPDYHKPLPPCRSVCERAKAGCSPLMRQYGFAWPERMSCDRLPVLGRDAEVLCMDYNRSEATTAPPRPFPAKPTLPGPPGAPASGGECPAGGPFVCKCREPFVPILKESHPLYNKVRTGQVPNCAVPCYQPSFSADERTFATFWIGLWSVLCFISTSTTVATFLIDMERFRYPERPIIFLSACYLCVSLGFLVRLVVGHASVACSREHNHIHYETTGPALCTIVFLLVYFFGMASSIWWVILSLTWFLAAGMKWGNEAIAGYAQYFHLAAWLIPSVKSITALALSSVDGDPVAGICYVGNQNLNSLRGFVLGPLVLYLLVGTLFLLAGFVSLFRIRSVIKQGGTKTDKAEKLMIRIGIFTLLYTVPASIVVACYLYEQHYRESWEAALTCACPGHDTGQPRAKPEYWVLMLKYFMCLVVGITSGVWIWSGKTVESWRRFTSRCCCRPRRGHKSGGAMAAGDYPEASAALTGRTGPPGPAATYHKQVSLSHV

binding [1]	binding (SNAP-FZD5 L446A (human))	binding (SNAP-FZD5 L443A (human))	Binder
no binding	–	–	PDZ_(248–353)-GFP, minimal PDZ domain of DVL2 (domain or fragment, UniProt O14641 248-353) ERTSSFSSVTDSTMSLNIITVTLNMEKYNFLGISIVGQSNERGDGGIYIGSIMKGGAVAADGRIEPGDMLLQVNDMNFENMSNDDAVRVLRDIVHKPGPIVLTVAK
binds	no binding	no binding	DEP_(414–507)-GFP, minimal DEP domain of DVL2 (domain or fragment, UniProt O14641 414-507) GRGLSVHTDMASVTKAMAAPESGLEVRDRMWLKITIPNAFLGSDVVDWLYHHVEGFPERREARKYASGLLKAGLIRHTVNKITFSEQCYYVFGD
